Data: the supplement of paper PMC12819154, “High-throughput peptide-centric local stability assay extends protein–ligand identification to membrane proteins, tissues and bacteria” (Nature Structural & Molecular Biology, 2025)
The other results are listed elsewhere or left out. Most values lie at the level of the controls, where differences are scatter.

Sequences of proteins named here, by UniProt entry; tags and fusion partners are left off. A change or cut given only in a name is not applied to a line headed by its entry.
UniProt Q8BHF7: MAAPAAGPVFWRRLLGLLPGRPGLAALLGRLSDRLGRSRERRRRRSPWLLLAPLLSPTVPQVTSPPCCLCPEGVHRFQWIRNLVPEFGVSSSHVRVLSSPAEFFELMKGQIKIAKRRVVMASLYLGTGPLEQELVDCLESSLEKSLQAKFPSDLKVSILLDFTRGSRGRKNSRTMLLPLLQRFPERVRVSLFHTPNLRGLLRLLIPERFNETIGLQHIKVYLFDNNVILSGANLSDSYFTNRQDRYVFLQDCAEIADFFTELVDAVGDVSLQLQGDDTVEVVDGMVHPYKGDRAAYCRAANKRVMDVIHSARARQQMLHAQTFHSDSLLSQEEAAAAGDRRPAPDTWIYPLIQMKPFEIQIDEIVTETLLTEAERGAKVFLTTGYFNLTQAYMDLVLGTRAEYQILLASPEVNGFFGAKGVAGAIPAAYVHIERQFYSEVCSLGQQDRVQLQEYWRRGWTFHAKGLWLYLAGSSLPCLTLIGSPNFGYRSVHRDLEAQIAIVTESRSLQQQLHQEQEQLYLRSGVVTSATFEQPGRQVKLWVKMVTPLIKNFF
UniProt Q8BHB4: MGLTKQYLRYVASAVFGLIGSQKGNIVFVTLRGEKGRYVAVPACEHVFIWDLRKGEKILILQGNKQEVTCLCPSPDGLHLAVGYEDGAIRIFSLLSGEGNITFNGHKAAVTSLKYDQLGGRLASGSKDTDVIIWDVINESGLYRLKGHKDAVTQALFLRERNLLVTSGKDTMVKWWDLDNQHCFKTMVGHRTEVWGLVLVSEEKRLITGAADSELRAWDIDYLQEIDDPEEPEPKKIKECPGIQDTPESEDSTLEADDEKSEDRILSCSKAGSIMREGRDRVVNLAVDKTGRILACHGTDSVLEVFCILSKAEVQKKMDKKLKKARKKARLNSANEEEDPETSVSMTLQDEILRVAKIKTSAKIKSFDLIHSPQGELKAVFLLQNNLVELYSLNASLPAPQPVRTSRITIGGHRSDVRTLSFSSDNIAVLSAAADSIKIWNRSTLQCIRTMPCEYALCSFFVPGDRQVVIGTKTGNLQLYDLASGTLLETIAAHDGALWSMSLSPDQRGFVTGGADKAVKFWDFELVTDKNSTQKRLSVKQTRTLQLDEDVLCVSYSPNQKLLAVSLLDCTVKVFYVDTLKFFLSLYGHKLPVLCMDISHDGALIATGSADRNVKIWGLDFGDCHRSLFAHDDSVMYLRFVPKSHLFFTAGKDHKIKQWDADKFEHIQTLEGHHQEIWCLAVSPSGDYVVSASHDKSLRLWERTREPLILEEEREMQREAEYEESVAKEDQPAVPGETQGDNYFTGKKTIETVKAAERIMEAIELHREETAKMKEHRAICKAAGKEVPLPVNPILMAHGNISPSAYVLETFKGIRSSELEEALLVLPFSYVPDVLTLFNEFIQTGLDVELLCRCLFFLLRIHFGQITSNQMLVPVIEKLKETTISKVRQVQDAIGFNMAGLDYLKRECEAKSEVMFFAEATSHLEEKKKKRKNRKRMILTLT
UniProt Q8BFQ9: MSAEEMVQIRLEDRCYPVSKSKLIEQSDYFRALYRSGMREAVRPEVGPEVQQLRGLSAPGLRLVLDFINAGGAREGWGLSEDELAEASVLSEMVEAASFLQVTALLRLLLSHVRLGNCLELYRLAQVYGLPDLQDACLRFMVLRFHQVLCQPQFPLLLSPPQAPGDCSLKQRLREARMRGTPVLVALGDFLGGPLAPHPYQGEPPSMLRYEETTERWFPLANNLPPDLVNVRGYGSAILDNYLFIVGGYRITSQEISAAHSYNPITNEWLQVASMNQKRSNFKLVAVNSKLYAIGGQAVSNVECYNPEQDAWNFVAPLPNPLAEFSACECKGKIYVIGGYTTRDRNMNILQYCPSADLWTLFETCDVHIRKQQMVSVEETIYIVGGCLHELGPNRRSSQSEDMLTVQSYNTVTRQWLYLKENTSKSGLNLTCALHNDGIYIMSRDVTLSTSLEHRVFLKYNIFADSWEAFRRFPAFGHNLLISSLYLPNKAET
UniProt Q8BFY6: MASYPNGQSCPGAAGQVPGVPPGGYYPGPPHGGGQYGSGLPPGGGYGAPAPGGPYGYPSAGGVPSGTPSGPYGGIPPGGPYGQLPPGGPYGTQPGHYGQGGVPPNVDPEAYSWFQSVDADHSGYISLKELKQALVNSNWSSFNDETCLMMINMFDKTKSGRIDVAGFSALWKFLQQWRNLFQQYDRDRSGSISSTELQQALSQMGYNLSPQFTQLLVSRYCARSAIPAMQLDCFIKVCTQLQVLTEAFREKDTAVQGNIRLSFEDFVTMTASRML
UniProt Q8BFU3: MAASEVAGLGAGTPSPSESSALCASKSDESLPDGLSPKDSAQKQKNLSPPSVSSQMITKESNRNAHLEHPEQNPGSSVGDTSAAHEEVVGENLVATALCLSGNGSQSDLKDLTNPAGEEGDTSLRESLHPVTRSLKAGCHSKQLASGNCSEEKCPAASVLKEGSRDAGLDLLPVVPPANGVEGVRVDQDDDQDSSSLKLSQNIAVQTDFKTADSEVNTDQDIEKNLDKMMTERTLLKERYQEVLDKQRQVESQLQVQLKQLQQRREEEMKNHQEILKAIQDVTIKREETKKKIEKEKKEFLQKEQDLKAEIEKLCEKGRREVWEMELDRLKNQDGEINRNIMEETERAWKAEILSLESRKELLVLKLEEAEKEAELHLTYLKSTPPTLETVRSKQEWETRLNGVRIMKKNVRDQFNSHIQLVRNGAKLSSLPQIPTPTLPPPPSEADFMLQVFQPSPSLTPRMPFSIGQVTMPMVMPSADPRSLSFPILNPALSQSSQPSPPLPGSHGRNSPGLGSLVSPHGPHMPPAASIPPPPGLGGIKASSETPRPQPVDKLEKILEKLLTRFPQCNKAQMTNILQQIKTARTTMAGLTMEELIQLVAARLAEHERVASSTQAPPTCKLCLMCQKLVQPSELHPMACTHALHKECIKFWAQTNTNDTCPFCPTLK
UniProt Q8BH65: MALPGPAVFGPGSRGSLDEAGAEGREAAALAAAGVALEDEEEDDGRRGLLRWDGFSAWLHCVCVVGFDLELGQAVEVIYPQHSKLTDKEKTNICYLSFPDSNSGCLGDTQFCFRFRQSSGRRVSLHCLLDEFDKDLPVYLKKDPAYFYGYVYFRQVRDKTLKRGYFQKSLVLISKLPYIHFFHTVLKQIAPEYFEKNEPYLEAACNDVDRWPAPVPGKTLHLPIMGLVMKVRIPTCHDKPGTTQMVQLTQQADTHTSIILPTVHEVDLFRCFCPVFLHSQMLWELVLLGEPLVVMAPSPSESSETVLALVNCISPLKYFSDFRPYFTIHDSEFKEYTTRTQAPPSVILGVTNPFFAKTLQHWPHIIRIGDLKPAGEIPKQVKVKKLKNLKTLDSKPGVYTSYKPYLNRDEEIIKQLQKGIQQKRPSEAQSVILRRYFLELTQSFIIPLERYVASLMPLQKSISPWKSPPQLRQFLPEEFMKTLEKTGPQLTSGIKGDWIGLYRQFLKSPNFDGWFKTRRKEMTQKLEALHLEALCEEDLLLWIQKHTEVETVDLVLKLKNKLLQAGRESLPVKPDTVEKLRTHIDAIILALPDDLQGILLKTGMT
UniProt Q8BHG1: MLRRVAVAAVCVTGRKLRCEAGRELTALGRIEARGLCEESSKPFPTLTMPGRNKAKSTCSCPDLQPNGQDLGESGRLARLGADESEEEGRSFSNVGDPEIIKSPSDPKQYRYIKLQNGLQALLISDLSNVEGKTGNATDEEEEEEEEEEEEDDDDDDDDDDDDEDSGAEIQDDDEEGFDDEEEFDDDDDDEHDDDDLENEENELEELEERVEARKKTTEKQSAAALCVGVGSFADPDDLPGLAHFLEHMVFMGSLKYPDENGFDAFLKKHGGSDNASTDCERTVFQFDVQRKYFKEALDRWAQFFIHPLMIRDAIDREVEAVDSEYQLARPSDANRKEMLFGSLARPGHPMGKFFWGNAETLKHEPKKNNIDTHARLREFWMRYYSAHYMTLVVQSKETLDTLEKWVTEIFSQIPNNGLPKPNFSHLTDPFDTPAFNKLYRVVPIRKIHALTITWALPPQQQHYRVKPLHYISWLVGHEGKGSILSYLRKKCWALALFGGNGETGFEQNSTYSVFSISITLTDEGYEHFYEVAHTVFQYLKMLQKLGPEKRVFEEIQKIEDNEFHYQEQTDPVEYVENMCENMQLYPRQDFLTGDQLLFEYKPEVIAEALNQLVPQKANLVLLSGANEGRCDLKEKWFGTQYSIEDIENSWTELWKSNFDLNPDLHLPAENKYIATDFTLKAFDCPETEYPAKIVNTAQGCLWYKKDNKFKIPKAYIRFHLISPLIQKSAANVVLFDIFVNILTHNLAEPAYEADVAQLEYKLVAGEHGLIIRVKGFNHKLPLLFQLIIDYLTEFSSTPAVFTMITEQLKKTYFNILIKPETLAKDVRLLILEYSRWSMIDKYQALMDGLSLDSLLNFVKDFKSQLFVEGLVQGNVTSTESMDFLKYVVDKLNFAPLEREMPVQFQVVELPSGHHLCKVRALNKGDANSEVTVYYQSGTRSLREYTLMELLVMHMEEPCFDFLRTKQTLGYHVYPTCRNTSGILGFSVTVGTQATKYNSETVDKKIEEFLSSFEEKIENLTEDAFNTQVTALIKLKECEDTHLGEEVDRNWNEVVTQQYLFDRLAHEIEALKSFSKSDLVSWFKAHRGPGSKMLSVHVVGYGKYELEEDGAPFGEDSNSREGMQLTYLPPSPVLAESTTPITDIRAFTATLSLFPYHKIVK
UniProt Q811D2: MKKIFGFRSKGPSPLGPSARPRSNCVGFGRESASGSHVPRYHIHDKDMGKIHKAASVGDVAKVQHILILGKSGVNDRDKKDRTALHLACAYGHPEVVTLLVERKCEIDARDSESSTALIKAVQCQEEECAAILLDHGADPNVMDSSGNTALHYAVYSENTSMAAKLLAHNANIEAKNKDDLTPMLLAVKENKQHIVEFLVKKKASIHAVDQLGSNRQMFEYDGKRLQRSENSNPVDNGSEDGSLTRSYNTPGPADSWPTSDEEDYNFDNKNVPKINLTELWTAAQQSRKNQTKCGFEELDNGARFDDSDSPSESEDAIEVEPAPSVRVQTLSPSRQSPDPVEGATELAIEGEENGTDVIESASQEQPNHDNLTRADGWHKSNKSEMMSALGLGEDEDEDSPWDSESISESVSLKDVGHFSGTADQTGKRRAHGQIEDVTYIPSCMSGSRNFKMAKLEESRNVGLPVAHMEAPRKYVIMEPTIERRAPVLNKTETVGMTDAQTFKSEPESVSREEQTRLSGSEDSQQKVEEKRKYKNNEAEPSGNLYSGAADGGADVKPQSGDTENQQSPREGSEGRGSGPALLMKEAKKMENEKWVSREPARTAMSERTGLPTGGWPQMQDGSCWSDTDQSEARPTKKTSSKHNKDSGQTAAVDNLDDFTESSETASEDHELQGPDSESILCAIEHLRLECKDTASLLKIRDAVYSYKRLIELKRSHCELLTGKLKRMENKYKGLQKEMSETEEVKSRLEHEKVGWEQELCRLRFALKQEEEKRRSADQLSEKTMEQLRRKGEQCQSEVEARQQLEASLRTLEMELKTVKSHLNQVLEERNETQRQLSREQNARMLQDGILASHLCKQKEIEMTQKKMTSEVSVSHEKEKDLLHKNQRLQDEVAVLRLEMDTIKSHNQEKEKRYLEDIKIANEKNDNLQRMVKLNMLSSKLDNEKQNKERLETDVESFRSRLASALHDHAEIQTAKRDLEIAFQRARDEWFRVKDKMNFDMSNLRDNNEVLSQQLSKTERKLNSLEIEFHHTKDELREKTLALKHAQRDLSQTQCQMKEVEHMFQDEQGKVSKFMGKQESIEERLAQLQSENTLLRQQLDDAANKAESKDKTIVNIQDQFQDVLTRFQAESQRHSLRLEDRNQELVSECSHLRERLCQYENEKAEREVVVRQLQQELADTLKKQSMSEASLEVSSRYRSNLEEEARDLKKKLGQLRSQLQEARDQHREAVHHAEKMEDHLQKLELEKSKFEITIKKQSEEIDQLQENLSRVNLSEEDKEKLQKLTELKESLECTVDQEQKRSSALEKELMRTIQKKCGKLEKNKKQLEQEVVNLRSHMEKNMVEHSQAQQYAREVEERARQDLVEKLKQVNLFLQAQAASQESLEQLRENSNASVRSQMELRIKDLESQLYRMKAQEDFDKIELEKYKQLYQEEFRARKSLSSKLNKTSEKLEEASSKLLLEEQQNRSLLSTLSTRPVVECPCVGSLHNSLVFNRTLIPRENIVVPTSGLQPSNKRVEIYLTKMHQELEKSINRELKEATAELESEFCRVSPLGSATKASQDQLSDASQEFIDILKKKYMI
UniProt Q8BG17: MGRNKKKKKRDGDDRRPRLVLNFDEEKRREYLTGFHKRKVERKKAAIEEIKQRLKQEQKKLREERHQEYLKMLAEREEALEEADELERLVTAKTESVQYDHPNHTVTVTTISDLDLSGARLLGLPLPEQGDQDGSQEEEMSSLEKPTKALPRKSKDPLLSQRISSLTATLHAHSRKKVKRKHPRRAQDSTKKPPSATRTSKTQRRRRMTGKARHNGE
UniProt Q8BGD8: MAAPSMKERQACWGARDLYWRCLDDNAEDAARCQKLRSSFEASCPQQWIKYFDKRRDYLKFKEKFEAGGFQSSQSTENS

Compound: CN[C@@H]1C[C@H]2O[C@@](C)([C@@H]1OC)n1c3ccccc3c3c4c(c5c6ccccc6n2c5c31)C(=O)NC4 [staurosporine]
Assay: log2 fold change of tryptic peptide abundance, ligand vs vehicle (limited proteolysis) (log2 ratio); higher = more trypsin-susceptible (destabilized)
Conditions: ligand concentration: 20 uM; sample: mouse liver crude lysate; replicate design: treated separately

Target: UniProt Q8BG67 (peptide sequence: KAIDTNGMEEQEKEK, peptide start residue: 731)
- log2 fold change: 1.24

Target: UniProt Q80XA6 (peptide sequence: AIQTAIRK, peptide start residue: 598)
- log2 fold change: -0.371

Target: UniProt Q811D0 (peptide sequence: AVLGDDEITREPR, peptide start residue: 453)
- log2 fold change: -0.504

Target: UniProt Q8BHF7 (peptide sequence: LLGLLPGRPGLAALLGR, peptide start residue: 14)
- log2 fold change: 0.213

Target: UniProt Q8BHB4 (peptide sequence: EAEYEESVAK, peptide start residue: 719)
- log2 fold change: 0.24

Target: UniProt Q8BFQ9 (peptide sequence: EAVRPEVGPEVQQLR, peptide start residue: 40)
- log2 fold change: -0.00357

Target: UniProt Q80YC5 (peptide sequence: TNTMGCGQRFRK, peptide start residue: 336)
- log2 fold change: 0.202

Target: UniProt Q8BGR5 (peptide sequence: ANGLSSPCHQSSLHHR, peptide start residue: 175)
- log2 fold change: 0.328

Target: UniProt Q811M1 (peptide sequence: SSSSELPSHCHIDRK, peptide start residue: 216)
- log2 fold change: 0.147

Target: UniProt Q8BH48 (peptide sequence: LASTFHSTSCLR, peptide start residue: 283)
- log2 fold change: 0.117

Target: UniProt Q8BGA8 (peptide sequence: VAFISELPK, peptide start residue: 552)
- log2 fold change: 0.155

Target: UniProt Q8BFY6 (peptide sequence: NLFQQYDR, peptide start residue: 179)
- log2 fold change: 0.0776

Target: UniProt Q8BFU3 (peptide sequence: SKQEWETR, peptide start residue: 393)
- log2 fold change: 0.174

Target: UniProt Q8BGJ9 (peptide sequence: VNCSFYFK, peptide start residue: 16)
- log2 fold change: 0.283

Target: UniProt Q811L6 (peptide sequence: ASDVLVQGEGR, peptide start residue: 2265)
- log2 fold change: -0.477

Target: UniProt Q8BFW3 (peptide sequence: ASSEATVAFSGHHTLLSCK, peptide start residue: 573)
- log2 fold change: 0.45

Target: UniProt Q8BHJ5 (peptide sequence: DKLAQQHAAAAAAAAAATNQQGSAK, peptide start residue: 101)
- log2 fold change: -0.123

Target: UniProt Q80ZK0 (peptide sequence: DVTRPTITTSDEPDTLYKR, peptide start residue: 16)
- log2 fold change: -0.191

Target: UniProt Q8BFV2 (peptide sequence: DGASCAELVSFK, peptide start residue: 21)
- log2 fold change: 0.303

Target: UniProt Q8BG30 (peptide sequence: LLLGTLHLPR, peptide start residue: 56)
- log2 fold change: 0.979

Target: UniProt Q8BH57 (peptide sequence: LSASDMLQVR, peptide start residue: 585)
- log2 fold change: 0.58

Target: UniProt Q8BGV4 (peptide sequence: FFEGSGSGGSLR, peptide start residue: 67)
- log2 fold change: 0.102

Target: UniProt Q8BGG6 (peptide sequence: HVAPVPSHYDVQDR, peptide start residue: 98)
- log2 fold change: 0.233

Target: UniProt Q80YR5 (peptide sequence: DRGHYQEHVIDRR, peptide start residue: 814)
- log2 fold change: 0.456

Target: UniProt Q8BG40 (peptide sequence: KGHDTMFVVLTSR, peptide start residue: 496)
- log2 fold change: 0.139

Target: UniProt Q80X50 (peptide sequence: RYPSSISSSPQKDLTQAK, peptide start residue: 621)
- log2 fold change: 1.16

Target: UniProt Q8BG94 (peptide sequence: GRLHCTQDPVPEAVR, peptide start residue: 2)
- log2 fold change: -0.526

Target: UniProt Q80VP0 (peptide sequence: GHETSGNTDHSTENACLTEGKEK, peptide start residue: 448)
- log2 fold change: 0.666

Target: UniProt Q8BGX7 (peptide sequence: AEQHLIVAAPLR, peptide start residue: 470)
- log2 fold change: -0.141

Target: UniProt Q80XE1 (peptide sequence: ERVDSLLK, peptide start residue: 434)
- log2 fold change: 0.111

Target: UniProt Q8BH65 (peptide sequence: QFLPEEFMK, peptide start residue: 473)
- log2 fold change: -0.237

Target: UniProt Q812A3 (peptide sequence: LKLEEEK, peptide start residue: 49)
- log2 fold change: -0.0425

Target: UniProt Q80X41 (peptide sequence: RQQHLGLEQDMLR, peptide start residue: 414)
- log2 fold change: 0.421

Target: UniProt Q8BH73 (peptide sequence: GLMKPPSLSK, peptide start residue: 17)
- log2 fold change: 0.0241

Target: UniProt Q8BGW2 (peptide sequence: QHEINLIAYR, peptide start residue: 76)
- log2 fold change: 0.378

Target: UniProt Q8BHG1 (peptide sequence: LGADESEEEGR, peptide start residue: 80)
- log2 fold change: 0.177

Target: UniProt Q812A2 (peptide sequence: RPRPLSVYSHK, peptide start residue: 492)
- log2 fold change: 0.235

Target: UniProt Q8BGX0 (peptide sequence: FTIWDVGGK, peptide start residue: 450)
- log2 fold change: -0.0308

Target: UniProt Q8BG18 (peptide sequence: HYVESASAQSGCLR, peptide start residue: 274)
- log2 fold change: 0.0768

Target: UniProt Q80YE7 (peptide sequence: KASAVNMEK, peptide start residue: 287)
- log2 fold change: 0.491

Target: UniProt Q8BHS6 (peptide sequence: LNSSVQLAGLR, peptide start residue: 216)
- log2 fold change: -0.177

Target: UniProt Q8BH35 (peptide sequence: SVLEVAHYK, peptide start residue: 296)
- log2 fold change: 0.142

Target: UniProt Q811D2 (peptide sequence: GSGPALLMK, peptide start residue: 577)
- log2 fold change: -0.484

Target: UniProt Q8BGI3 (peptide sequence: QLAMGVPEKPHSD, peptide start residue: 247)
- log2 fold change: -0.24

Target: UniProt Q810A7 (peptide sequence: VSYLVFDEADR, peptide start residue: 401)
- log2 fold change: -0.234

Target: UniProt Q80YR9 (peptide sequence: GQHPFGNFDHLQGGKFDFEK, peptide start residue: 716)
- log2 fold change: 0.313

Target: UniProt Q80YR4 (peptide sequence: AEVPVTIVVNGHSEGSALVR, peptide start residue: 623)
- log2 fold change: 0.415

Target: UniProt Q80XU3 (peptide sequence: LKATVTPSPVKGK, peptide start residue: 174)
- log2 fold change: -0.162

Target: UniProt Q8BH97 (peptide sequence: DVAKEFDK, peptide start residue: 63)
- log2 fold change: -0.278

Target: UniProt Q8BFX3 (peptide sequence: GFEAGGFLGR, peptide start residue: 758)
- log2 fold change: -0.677

Target: UniProt Q8BHN0 (peptide sequence: VQGILAMSR, peptide start residue: 257)
- log2 fold change: 0.146

Target: UniProt Q8BFR5 (peptide sequence: FKKYEEIDNAPEER, peptide start residue: 89)
- log2 fold change: -0.108

Target: UniProt Q80Y84 (peptide sequence: ALIEESEMK, peptide start residue: 781)
- log2 fold change: -0.247

Target: UniProt Q8BG80 (peptide sequence: VAEAVAHFEAQR, peptide start residue: 227)
- log2 fold change: 0.0337

Target: UniProt Q8BGC3 (peptide sequence: QASPYSPLTK, peptide start residue: 221)
- log2 fold change: -0.314

Target: UniProt Q80Z38 (peptide sequence: VYGTIKPAFNQNPVVAK, peptide start residue: 541)
- log2 fold change: 0.345

Target: UniProt Q8BH50 (peptide sequence: DSSESQLASTESDKPTTGR, peptide start residue: 65)
- log2 fold change: -0.203

Target: UniProt Q8BG17 (peptide sequence: EYLTGFHKR, peptide start residue: 30)
- log2 fold change: 0.328

Target: UniProt Q8BGQ1 (peptide sequence: CHDVVIDTCR, peptide start residue: 444)
- log2 fold change: 0.282

Target: UniProt Q8BGA7 (peptide sequence: TPVVYCVR, peptide start residue: 140)
- log2 fold change: 0.381

Target: UniProt Q8BGT5 (peptide sequence: GGYMEVINLHPEIK, peptide start residue: 350)
- log2 fold change: -0.452

Target: UniProt Q8BGB8 (peptide sequence: LQSLPEGSLGR, peptide start residue: 116)
- log2 fold change: -0.195

Target: UniProt Q8BH69 (peptide sequence: YGEGHQAWIIGIVEK, peptide start residue: 345)
- log2 fold change: -0.293

Target: UniProt Q80YE4 (peptide sequence: HSGIQDSQKEQDLR, peptide start residue: 1018)
- log2 fold change: 0.367

Target: UniProt Q8BGD8 (peptide sequence: ERQACWGAR, peptide start residue: 8)
- log2 fold change: 0.15

Target: UniProt Q80WG5 (peptide sequence: MNGSMDKK, peptide start residue: 190)
- log2 fold change: -0.357

Target: UniProt Q80XH1 (peptide sequence: LQQMSER, peptide start residue: 56)
- log2 fold change: -0.205
